# PubChem BioAssay AID493014 (National Center for Advancing Translational Sciences (NCATS), 2011)
# Some of the results follow. The main result of the screen is listed elsewhere. These columns were measured beside it and carry no call. The list favours compounds with an active or inconclusive main result. The note in brackets gives the kind of curve behind each potency; many fits are weak.
# Experiment: qHTS Assay to Find Inhibitors of Chronic Active B-Cell Receptor Signaling
# Details: ABC-DLBCL IkBa-CBG/CBR reporter, luminescence ratio (green luciferase fused to IkBa over red control in TMD8 lymphoma cells), 4 h
# How it was run: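 Concentration-response series (up to 46 uM) were applied to TMD8 dual-reporter cells for 4 h at 37C with doxycycline. Green/red ratio, after filter-overlap correction, defined %Activity; red signal alone was normalised to basal cells and zero luminescence.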
# [1] = measured here: CBR red luminescence, cell number
# [2] = measured here: IkBa-CBG green luminescence
SMILES,AC50 [1],AC50 [2]
Cc1[nH]nc2c1C(c1ccc(OC(=O)c3ccco3)cc1)C(C#N)=C(N)O2 (centres undefined),"11.2 µM [falling, partial curve, poor fit]",–
O=C(c1cccc(S(=O)(=O)N2CCc3ccccc32)c1)N1CCN(c2ccccc2)CC1,"29.1 µM [falling, partial curve, poor fit]",–
O=C(NOCc1ccccc1)c1ccc([N+](=O)[O-])cc1,"29.1 µM [falling, single point]",–
O=C(N/N=C/c1ccccn1)c1ccc(N/N=C/c2ccccn2)cc1,"6.31 µM [falling, partial curve, poor fit]",–
O=C1CSC(c2cccc([N+](=O)[O-])c2)N1C1CC2CCC1C2 (centres undefined),"11.2 µM [rising, partial curve]",–
CC(NC(=O)CCl)c1ccc(Cl)c(Cl)c1 (centres undefined),"18.4 µM [falling, partial curve, poor fit]",–
Cc1cc(Nc2ccccc2)nc(NCc2ccccc2)n1,"29.1 µM [falling, single point]","20.6 µM [rising, partial curve, poor fit]"
CC1CCCC(C)N1C(=O)/C=C/c1ccc(S(=O)(=O)N2CCOCC2)cc1 (centres undefined),"18.4 µM [rising, partial curve, poor fit]",–
CCN(CC)CC(C)CNC(=O)C1(O)c2ccccc2NC(=O)N1c1ccc(Cl)c(Cl)c1 (centres undefined),"12.6 µM [falling, partial curve, poor fit]",–
Cc1ccc(C(=O)Nc2nnc(-c3ccncc3)s2)o1,"3.66 µM [falling, full curve]",–
CC(C)CC(=O)Nc1cccc(-c2nc3ccccc3[nH]2)c1,"35.5 µM [falling, single point]",–
O=C(/C=C/c1ccccc1)N1CCN(CCN2C(=O)c3cccc4cccc(c34)C2=O)CC1,"0.731 µM [rising, full curve, poor fit]",–
CCCCc1ccc(NC(=S)NCCc2ccc(F)cc2)cc1,"35.5 µM [falling, single point]",–
Cc1ccccc1C(=O)NC1CCN(CC(=O)NCc2ccccc2)CC1,"1.12 µM [falling, full curve, poor fit]",–
Cc1noc(NC(=O)c2cccc(C(F)(F)F)c2)c1Cl,"14.1 µM [falling, single point]",–
O=C(NNC(=O)C1COc2ccccc2O1)c1cccc([N+](=O)[O-])c1 (centres undefined),"35.5 µM [falling, single point]",–
N/C(=N\OC(=O)COc1ccc(Br)cc1Cl)c1ccccn1,"0.651 µM [rising, full curve, poor fit]",–
Cn1c(N/N=C\c2cccc(O)c2)cc(=O)n(C)c1=O,"13 µM [falling, partial curve, poor fit]",–
Cc1cc(C)n2nc(C(=O)N/N=C/c3ccc(O)cc3)nc2n1,"12.6 µM [falling, partial curve, poor fit]",–
CC(Nc1ccc(N2CCOCC2)cc1)C(=O)N1c2ccccc2CC1C (centres undefined),"5.62 µM [rising, single point]",–

SMILES,AC50 [1],AC50 [2]
CC(C)c1ccc(/C=C/C(=O)Nc2ccc(CN3CCOCC3)cc2)cc1,"35.5 µM [falling, single point]",–
COCc1cc(CN2CCCC(C(=O)Nc3ccc(-c4ccco4)cc3)C2)ccc1OC (centres undefined),"12.6 µM [falling, single point]",–
CCOC(=O)C1CCN(CC(O)COCc2ccc(Cl)cc2)CC1 (centres undefined),"8.91 µM [rising, partial curve, poor fit]",–
CCOC(=O)CN(C(=O)CSc1nnc(C)n1-c1ccccc1)c1cccc([N+](=O)[O-])c1,"25.9 µM [falling, single point]","29.1 µM [rising, partial curve, poor fit]"
CC1=C/C(=N\NC(=S)NCc2ccccc2)CC1,"35.5 µM [rising, single point]","3.16 µM [falling, partial curve, poor fit]"
O=C1CN(C(=O)CNCc2ccccc2Cl)c2ccccc2N1,"35.5 µM [falling, single point]",–
CCOc1ccc(C(c2nnnn2C(C)(C)C)N2CCN(C(=O)c3ccco3)CC2)cc1 (centres undefined),"3.98 µM [rising, full curve, poor fit]",–
COc1cc(/C=N/Nc2cccc3cccnc23)cc(OC)c1O,"6.31 µM [falling, partial curve]",–
CC(C)(C)OC(=O)CN1c2cccc3cccc(c23)S1(=O)=O,"11.2 µM [rising, partial curve, poor fit]",–
C=C(C)c1cccc(C(C)(C)NC(=O)N(C)C2CCN(C)CC2)c1,"10 µM [falling, partial curve, poor fit]",–
CC(COc1ccc(/C=C/c2ccccc2)cc1)[N+](C)(C)C (centres undefined),"23.1 µM [rising, partial curve]","16.4 µM [falling, single point]"
COc1ccc(C2CC(c3cccs3)=NN2C(=O)CSc2nncn2C)cc1OC (centres undefined),"31.6 µM [rising, single point]",–
Cc1cc(CN2CCCCC2)oc1C(=O)O,"29.1 µM [falling, single point]",–
C=CCN=C1NN=C(c2cc(C)n(CCOC)c2C)CS1,"20.6 µM [rising, partial curve, poor fit]",–
CC(C)N1CC(O)=C(c2ccccc2)C1=N,"35.5 µM [rising, single point]",–
COc1ccc(C(=O)Nc2ccc(N3CCCC3)cc2)cc1OC,"1.41 µM [falling, full curve]",–
CCn1c(-c2ccccc2)c(C(=O)CCl)c2ccccc21,"35.5 µM [falling, single point]",–
COc1ccc(N2CC(C(=O)Nc3nc(-c4ccccc4)c(C(C)=O)s3)CC2=O)c(OC)c1 (centres undefined),"7.31 µM [falling, partial curve, poor fit]",–
COc1cc(Cl)c(CC(=O)c2c[nH]c3ccccc23)cc1OC,"8.91 µM [falling, partial curve]",–
Cc1ccsc1C(=O)Nc1n[nH]c(C(F)(F)F)n1,"8.91 µM [falling, partial curve]",–

# Ten of these compounds, reformatted.
SMILES	AC50 [1]	AC50 [2]
COCc1cc(CN2CCCC(C(=O)Nc3ccc(-c4ccco4)cc3)C2)ccc1OC (centres undefined)	12.6 µM [falling, single point]	–
CCOC(=O)C1CCN(CC(O)COCc2ccc(Cl)cc2)CC1 (centres undefined)	8.91 µM [rising, partial curve, poor fit]	–
CCOC(=O)CN(C(=O)CSc1nnc(C)n1-c1ccccc1)c1cccc([N+](=O)[O-])c1	25.9 µM [falling, single point]	29.1 µM [rising, partial curve, poor fit]
CC1=C/C(=N\NC(=S)NCc2ccccc2)CC1	35.5 µM [rising, single point]	3.16 µM [falling, partial curve, poor fit]
O=C1CN(C(=O)CNCc2ccccc2Cl)c2ccccc2N1	35.5 µM [falling, single point]	–
CCOc1ccc(C(c2nnnn2C(C)(C)C)N2CCN(C(=O)c3ccco3)CC2)cc1 (centres undefined)	3.98 µM [rising, full curve, poor fit]	–
COc1cc(/C=N/Nc2cccc3cccnc23)cc(OC)c1O	6.31 µM [falling, partial curve]	–
CC(C)(C)OC(=O)CN1c2cccc3cccc(c23)S1(=O)=O	11.2 µM [rising, partial curve, poor fit]	–
C=C(C)c1cccc(C(C)(C)NC(=O)N(C)C2CCN(C)CC2)c1	10 µM [falling, partial curve, poor fit]	–
CC(COc1ccc(/C=C/c2ccccc2)cc1)[N+](C)(C)C (centres undefined)	23.1 µM [rising, partial curve]	16.4 µM [falling, single point]
